# Assay results: patent US20140248218A1, “ROS-SENSITIVE FLUORESCENT PROBES” (The Regents of the University of California, priority 2013, published 2014)
# Assay: Fluorescence response of the probes to H2O2 (luminescence spectroscopy, fluorescence turn-on)
# Format: physicochemical
# Conditions: for fluorescence of the compound in the absence of H2O2 / maximum λem after addition of H2O2: 50 mM HEPES pH 7.5
# Procedure: Fluorescence emission spectra were recorded with a Perkin-Elmer LS-55 fluorescence spectrometer. To a 2.0 mL solution of probe of varying concentrations in HEPES buffer (50 mM, pH 7.5) was added H2O2 in HEPES to monitor fluorescence turn-on. Spectra were monitored over time at room temperature with quartz cuvettes.
# To quantitate the fluorescence turn-on, a sample of each probe (1 μM in 50 mM HEPES pH 7.5) was prepared. An excess of H2O2 (300 eq, 300 μM) was added to the latent fluorophore and spectra were recorded until no increase in fluorescence intensity was observed, signifying a complete reaction. The collected initial and final emission spectrum were integrated, and the ratio reports the fluorescence turn on.
# FBBBE and CBBE were evaluated for H2O2 sensitivity under simulated physiological conditions (50 mM HEPES, pH 7.5). For FBBBE, the installation of the benzyl protecting group forces the compound to remain in the closed lactone form, rendering FBBBE (and FBn) nonfluorescent. […] Along with the observed fluorescence increase, the absorption spectrum of FBBBE considerably changed upon H2O2 addition with a large increase in the visible absorption band (λmax=494 nm). The final spectrum recorded was identical to that of an authentic sample of fluorescein, providing additional proof that the probe was undergoing complete deprotection to the desired product (FIG. 7). […] FBBBE was incubated with different concentrations of H2O2 for 15 min and then the emission spectrum was collected.
# The coumarin-based compound, CBBE, was nonfluorescent in the absence of H2O2. […] (FIG. 12).
# Additional studies were performed to quantify the fluorescence turn-on for each probe to directly compare the sensitivity to H2O2. […] To determine the sensitivity of these probes in a more quantitative fashion, pseudo first-order kinetic measurements were performed using UV-Vis absorption spectroscopy. The observed rate constants for FBBBE and CBBE activation by H2O2 were kobs=3.1×10-5 s-1 and kobs=4.6×10-3 s-1, respectively. It was determined that the deprotection of CBBE was much faster than FBBBE. This may be likely due to the fact that FBBBE contains two boronic ester triggers that are required for complete release of the fluorophore. Recently, it has been shown that boronic ester based probes can be sensitive to other biologically relevant ROS, such as hypochlorite (—OCl) and peroxynitrite (—ONOO).^[26]
SMILES,fluorescence of the compound in the absence of H2O2,maximum λem after addition of H2O2 [nm],"visible absorption band λmax after H2O2 addition (50 mM HEPES pH 7.5, UV-Vis) [nm]"
"CC1(C)OB(c2ccc(COc3ccc4c(-c5ccccc5C(=O)O)c5ccc(=O)cc-5oc4c3)cc2)OC1(C)C [FBBE, 2-(3-oxo-6-((4-(4,4,5,5-tetramethyl-1,3,2-dioxaborolan-2-yl)benzyl)oxy)-3H-xanthen-9-yl)benzoic acid]",highly fluorescent,,
"CC1(C)OB(c2ccc(COc3ccc4c(c3)Oc3cc(OCc5ccc(B6OC(C)(C)C(C)(C)O6)cc5)ccc3C43OC(=O)c4ccccc43)cc2)OC1(C)C [FBBBE, 3′,6′-bis((4-(4,4,5,5-tetramethyl-1,3,2-dioxaborolan-2-yl)benzyl)oxy)-3H-spiro[isobenzofuran-1,9′-xanthen]-3-one]",nonfluorescent,521,494
"O=C1OC2(c3ccc(OCc4ccccc4)cc3Oc3cc(OCc4ccccc4)ccc32)c2ccccc21 [FBn, 3′,6′-bis(benzyloxy)-3H-spiro[isobenzofuran-1,9′-xanthen]-3-one, reference compound]",nonfluorescent,,
"CC1(C)OB(c2ccc(COc3ccc4ccc(=O)oc4c3)cc2)OC1(C)C [CBBE, 7-((4-(4,4,5,5-tetramethyl-1,3,2-dioxaborolan-2-yl)benzyl)oxy)-2H-chromen-2-one]",nonfluorescent,453,
